Where a name gives a salt, the structure may show the parent alone. Some results were stated once for a whole list of compounds, not compound by compound. For part of these data: At least one compound was matched to its structure with a doubt left.
How the values were obtained:
[1] = tested on: pooled normal human citrated plasma; assay: Test D: determination of activated partial thromboplastin time (APTT); assay type: biochemical; settings: concentration of inhibitor in human plasma that doubled the APTT
[2] = Test E: determination of thrombin time ex vivo (plasma concentration of thrombin inhibitor after oral or parenteral administration); assay type: in vivo, rat; settings: conscious rats, LC-MS/MS of plasma

Row | Compound | IC50 [1] | oral and/or parenteral bioavailability as the corresponding active inhibitor (free amidine) [2]
1 | N=C(N)c1ccc(CNC(=O)[C@@H]2CCN2C(=O)[C@H](O)c2cc(Cl)cc(OCF)c2)cc1 [Example 19, Ph(3-Cl)(5-OCH2F)—(R)CH(OH)C(O)-Aze-Pab×TFA] | < 1 µM | 
2 | N=C(N)c1ccc(CNC(=O)[C@@H]2CCN2C(=O)[C@H](O)c2cc(Cl)cc(OC(CF)CF)c2)cc1 [Example 23, Ph(3-Cl)(5-OCH(CH2F)2)—(R)CH(OH)C(O)-Aze-Pab×TFA] | < 1 µM | 
3 | Ph(3-Cl)(5-OCHF2)—(R)CH(OH)C(O)-Aze-Pab(OcBu) [Example 1] |  | oral and/or parenteral bioavailability in the rat as the corresponding active inhibitor (free amidine)

Reference: patent US7645751B2, “Mandelic acid derivatives and their use as thrombin inhibitors” (AstraZeneca, priority 2000, dated 2010)
